Results: patent publication US20230151065A1 (priority 2018, published 2023)

Test: peptide made by a vendor (Fmoc solid-phase peptide synthesis; Fmoc-AM-MBHA resin; DIC/HOBt)
Conditions: whole synthesis, analytical RP-HPLC, several disulfide bridges, sequence written open

CLETSGSCIPGAQHNCCSGVCVPLVTLFYGVCY (Achyranthes bidentata Blume)
final HPLC purity: greater than 95%

Plain letter strings leave the end groups untold.
